Test: Odor intensity, modified static-scale ASTM E544-10 method
Conditions: for Test material Intensity score: Compound at 15%, scale 0 (No odor) to 6 (Extremely strong), reference 1-butanol

| SMILES | Test material Intensity score | relative odor intensity (in words) (in comparison with methyl dihydrojasmonate) |
| --- | --- | --- |
| CCCCCC1C(=O)CCC1CC(=O)OC (stereo not shown) [Methyl Dihydrojasmonate, reference compound] | 5 |  |
| CCCCCC1C(=O)CCC1CC(=O)OCCC (stereo not shown) [Propyl Dihydrojasmonate] | 1 | almost no odor |
| CCN(CC)C(=O)c1cccc(C)c1 [DEET ®, N,N-Diethyl-m-toluamide, reference compound] | 1.5 |  |
